According to the supplement of paper PMC10849652:
Some of the results follow.

Protein sequences, listed by entry. Tags and fused reporters are not part of them. Lines headed by an entry give the natural chain unless they say otherwise; changes in a name come on top.
UniProt O95232: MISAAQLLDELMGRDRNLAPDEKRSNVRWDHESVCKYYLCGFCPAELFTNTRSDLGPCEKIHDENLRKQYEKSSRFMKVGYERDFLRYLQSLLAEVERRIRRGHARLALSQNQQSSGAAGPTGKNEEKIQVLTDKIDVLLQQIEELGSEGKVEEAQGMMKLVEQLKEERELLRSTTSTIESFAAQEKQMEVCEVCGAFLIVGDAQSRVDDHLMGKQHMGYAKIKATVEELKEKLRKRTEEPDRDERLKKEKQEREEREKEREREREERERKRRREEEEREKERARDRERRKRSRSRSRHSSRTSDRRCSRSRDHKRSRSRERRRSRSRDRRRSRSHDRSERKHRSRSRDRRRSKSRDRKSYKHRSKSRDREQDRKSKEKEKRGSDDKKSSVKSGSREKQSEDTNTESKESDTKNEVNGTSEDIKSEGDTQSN
UniProt Q7Z3D4: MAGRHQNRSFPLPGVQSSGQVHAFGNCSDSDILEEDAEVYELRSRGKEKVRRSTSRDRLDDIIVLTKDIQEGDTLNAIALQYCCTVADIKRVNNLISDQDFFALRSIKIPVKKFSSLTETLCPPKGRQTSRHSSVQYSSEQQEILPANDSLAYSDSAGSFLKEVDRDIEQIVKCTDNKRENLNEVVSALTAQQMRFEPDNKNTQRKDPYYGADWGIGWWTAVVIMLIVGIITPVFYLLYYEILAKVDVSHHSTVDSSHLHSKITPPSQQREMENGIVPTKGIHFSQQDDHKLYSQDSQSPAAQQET
UniProt Q9UPY8, whole entry, looked up: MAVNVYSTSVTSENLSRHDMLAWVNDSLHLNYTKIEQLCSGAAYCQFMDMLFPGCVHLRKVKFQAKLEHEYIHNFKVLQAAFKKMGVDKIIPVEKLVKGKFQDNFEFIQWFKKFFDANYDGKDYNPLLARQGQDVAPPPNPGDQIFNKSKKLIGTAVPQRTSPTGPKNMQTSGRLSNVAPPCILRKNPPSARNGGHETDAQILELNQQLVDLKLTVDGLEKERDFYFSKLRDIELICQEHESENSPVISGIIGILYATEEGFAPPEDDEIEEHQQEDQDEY
UniProt Q9UKM7: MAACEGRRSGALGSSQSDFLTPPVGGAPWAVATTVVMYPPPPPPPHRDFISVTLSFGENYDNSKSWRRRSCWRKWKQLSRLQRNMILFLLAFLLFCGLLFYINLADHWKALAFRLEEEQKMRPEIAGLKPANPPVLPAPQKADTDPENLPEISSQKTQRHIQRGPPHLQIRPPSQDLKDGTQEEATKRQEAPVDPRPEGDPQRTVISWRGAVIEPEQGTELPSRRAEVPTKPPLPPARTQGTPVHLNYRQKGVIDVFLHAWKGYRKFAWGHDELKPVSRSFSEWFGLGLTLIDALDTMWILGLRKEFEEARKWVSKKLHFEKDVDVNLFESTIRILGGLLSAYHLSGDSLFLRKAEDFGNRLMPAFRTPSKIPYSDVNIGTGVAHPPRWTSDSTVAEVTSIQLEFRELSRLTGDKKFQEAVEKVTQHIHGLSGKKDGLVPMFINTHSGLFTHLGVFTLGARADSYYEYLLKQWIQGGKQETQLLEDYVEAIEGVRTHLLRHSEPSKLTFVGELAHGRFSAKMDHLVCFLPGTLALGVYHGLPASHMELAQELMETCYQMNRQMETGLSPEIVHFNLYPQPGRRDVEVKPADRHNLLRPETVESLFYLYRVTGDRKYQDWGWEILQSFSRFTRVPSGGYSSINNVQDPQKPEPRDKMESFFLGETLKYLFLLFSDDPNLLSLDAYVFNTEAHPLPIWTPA
UniProt Q9Y2E5: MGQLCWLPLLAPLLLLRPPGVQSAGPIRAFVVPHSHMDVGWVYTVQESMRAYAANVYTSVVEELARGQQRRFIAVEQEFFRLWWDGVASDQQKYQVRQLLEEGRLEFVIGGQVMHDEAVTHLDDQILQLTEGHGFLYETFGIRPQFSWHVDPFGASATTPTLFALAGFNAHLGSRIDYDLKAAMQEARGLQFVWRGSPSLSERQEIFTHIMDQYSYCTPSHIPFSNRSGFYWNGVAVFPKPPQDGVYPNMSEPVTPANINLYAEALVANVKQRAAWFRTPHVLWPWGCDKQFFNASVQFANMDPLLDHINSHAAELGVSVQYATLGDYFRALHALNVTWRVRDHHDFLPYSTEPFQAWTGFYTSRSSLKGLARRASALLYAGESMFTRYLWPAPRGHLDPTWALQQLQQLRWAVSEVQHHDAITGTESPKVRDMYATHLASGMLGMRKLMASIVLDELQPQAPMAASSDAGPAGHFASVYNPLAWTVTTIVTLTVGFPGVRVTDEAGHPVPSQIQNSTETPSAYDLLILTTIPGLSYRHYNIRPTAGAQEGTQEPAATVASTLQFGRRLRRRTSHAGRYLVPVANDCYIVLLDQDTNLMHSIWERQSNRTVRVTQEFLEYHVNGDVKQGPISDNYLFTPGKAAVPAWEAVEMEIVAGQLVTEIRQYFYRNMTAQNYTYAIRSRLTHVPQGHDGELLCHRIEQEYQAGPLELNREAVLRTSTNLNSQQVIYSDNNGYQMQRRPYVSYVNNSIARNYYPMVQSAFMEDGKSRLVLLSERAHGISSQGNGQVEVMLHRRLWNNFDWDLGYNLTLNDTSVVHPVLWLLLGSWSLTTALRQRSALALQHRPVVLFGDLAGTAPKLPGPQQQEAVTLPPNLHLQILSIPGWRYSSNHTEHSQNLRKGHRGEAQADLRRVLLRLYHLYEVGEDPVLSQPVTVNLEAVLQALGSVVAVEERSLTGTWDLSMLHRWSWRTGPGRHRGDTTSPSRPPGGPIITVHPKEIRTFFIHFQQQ
UniProt Q8N2S1: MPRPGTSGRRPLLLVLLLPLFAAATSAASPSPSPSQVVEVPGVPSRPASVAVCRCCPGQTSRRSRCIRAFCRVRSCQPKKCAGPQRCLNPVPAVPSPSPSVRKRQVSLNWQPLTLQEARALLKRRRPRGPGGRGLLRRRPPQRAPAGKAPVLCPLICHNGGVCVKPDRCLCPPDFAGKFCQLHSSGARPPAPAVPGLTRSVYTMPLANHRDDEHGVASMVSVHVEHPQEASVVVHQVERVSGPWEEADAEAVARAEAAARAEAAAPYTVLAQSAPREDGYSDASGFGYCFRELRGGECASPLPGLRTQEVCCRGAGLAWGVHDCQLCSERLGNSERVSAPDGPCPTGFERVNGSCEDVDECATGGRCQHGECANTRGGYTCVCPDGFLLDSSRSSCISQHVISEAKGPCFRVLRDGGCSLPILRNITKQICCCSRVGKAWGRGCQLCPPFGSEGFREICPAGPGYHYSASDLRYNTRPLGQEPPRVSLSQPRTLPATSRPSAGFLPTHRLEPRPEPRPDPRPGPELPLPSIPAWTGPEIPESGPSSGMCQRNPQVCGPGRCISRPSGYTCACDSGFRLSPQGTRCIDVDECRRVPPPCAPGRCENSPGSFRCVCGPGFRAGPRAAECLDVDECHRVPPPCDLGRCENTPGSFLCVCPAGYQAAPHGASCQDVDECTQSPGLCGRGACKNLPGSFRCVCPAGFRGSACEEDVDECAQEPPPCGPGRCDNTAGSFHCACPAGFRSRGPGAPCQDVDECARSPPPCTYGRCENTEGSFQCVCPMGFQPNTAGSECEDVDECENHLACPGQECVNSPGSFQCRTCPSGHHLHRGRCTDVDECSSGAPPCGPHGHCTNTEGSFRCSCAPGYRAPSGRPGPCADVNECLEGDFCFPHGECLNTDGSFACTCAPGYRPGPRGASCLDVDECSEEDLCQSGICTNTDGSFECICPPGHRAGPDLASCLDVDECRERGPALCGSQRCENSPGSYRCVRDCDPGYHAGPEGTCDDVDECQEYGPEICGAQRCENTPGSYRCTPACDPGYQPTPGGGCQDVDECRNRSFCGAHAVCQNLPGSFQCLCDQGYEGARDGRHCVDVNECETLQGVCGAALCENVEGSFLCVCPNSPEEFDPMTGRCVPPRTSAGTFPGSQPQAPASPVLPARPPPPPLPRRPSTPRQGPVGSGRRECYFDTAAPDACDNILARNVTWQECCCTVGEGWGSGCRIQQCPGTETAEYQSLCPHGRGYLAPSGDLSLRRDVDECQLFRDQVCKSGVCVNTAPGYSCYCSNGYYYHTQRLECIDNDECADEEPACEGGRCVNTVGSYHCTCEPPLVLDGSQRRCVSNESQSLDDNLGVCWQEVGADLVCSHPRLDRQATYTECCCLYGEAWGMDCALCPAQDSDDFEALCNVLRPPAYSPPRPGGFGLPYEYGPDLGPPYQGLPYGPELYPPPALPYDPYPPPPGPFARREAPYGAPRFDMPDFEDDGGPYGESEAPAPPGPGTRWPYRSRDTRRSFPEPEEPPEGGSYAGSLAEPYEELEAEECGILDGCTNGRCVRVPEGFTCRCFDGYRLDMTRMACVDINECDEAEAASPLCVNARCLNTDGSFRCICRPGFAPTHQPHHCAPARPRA
UniProt Q12851: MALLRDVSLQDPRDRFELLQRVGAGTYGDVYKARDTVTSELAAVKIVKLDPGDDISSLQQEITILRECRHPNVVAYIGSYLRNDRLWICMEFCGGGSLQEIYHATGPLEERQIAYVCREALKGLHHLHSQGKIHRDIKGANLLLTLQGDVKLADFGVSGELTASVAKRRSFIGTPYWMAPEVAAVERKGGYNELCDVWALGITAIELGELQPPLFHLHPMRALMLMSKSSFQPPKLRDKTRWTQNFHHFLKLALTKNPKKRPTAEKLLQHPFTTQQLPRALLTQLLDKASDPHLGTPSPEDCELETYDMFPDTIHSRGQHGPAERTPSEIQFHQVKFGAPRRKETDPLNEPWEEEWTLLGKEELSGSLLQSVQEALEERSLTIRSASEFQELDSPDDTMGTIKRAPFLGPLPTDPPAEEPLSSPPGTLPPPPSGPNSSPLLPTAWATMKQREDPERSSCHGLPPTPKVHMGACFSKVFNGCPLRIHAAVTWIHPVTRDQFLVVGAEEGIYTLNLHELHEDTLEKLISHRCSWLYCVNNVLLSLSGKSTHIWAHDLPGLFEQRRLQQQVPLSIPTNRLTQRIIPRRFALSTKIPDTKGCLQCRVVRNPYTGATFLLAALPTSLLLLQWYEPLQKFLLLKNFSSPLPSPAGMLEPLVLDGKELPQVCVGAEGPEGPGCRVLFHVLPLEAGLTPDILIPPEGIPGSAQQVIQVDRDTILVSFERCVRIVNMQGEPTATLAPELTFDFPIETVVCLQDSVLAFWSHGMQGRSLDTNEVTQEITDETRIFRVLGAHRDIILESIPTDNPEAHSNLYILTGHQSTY
UniProt P43360, whole entry, looked up: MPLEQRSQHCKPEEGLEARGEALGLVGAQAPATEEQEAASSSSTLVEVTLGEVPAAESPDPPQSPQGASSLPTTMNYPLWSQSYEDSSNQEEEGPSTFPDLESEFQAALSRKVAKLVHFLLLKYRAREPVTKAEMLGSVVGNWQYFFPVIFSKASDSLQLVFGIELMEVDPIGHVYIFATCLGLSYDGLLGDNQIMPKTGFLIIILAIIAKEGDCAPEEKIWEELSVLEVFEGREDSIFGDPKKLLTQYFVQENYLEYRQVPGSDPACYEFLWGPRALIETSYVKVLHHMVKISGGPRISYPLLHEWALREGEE

Legend:
Assay in all cases: log2 fold change, soluble protein after heating vs DMSO (PISA); higher = thermal stabilisation; K562 lysate, 10 uM; active = over 0.2 and 3.5 SD of the protein, either way, in both replicates (recomputed)
erlotinib = compound: C#Cc1cccc(Nc2ncnc3cc(OCCOC)c(OCCOC)cc23)c1 [erlotinib]
Method in brief: (§1)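 To prepare the extract, K562 pellets were dounce-homogenised in PBS pH 7.4 with 1 mM MgCl2, giving crude material at 1 mg/mL protein. This was treated with 10 μM compound for 30 min, then heated in aliquots for 3 min over 48°C-58°C before pooling and addition of NP-40 to 0.5% at 4°C. Centrifugation at 21,000xg for 90 min left soluble protein in the supernatant, which TMTpro 16plex LC-MS/MS quantified with equalised channel sums. Results are log-two fold changes in thermal stability compared with solvent controls, from duplicates.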

[1] = compound: C/C(=N\NC(=O)C1=CC(=CC=C1)S(=O)(=O)N2CCOCC2)/C3=C(C=CC(=C3)Cl)O
Method in brief: as §1

[2] = compound: C1=CC(=CC=C1C2=NC3=C(N2)C=C(C=C3)C(=O)N)OC4=CC=C(C=C4)Cl
Method in brief: as §1

[3] = compound: C1=CC2=C(C=CC(=C2)/C=C\3/C(=O)NC(=NCC4=CC=CS4)S3)N=C1
Method in brief: as §1

[4] = compound: C1=CC2=NC=CN=C2C=C1/C=C/3\C(=O)NC(=O)S3
Method in brief: as §1

[5] = compound: C1=CC=C(C=C1)C2=NC(=C(N2)C3=CC=NC=C3)C4=CC(=C(C=C4)Cl)O
Method in brief: as §1

[6] = compound: C1=CC=C2C(=C1)C3=NNC4=CC=CC(=C43)C2=O
Method in brief: as §1

[7] = compound: C1CCN(C1)C(=O)NC2=CC=CC(=C2)NC3=NC=C(C(=N3)NCCC4=CN=CN4)Br
Method in brief: as §1

[8] = compound: C1CN(CCC1(CC2=CC=C(C=C2)Cl)N)C3=NC=NC4=C3C=CN4
Method in brief: as §1

IRAK-1-4 Inhibitor I = compound: C1COCCN1CCN2C3=CC=CC=C3N=C2NC(=O)C4=CC(=CC=C4)[N+](=O)[O-] [IRAK-1-4 Inhibitor I]
Method in brief: as §1

ibrutinib = compound: C=CC(=O)N1CCC[C@@H](n2nc(-c3ccc(Oc4ccccc4)cc3)c3c(N)ncnc32)C1 [ibrutinib]
Method in brief: as §1

[9] = compound: CC(=O)c1cnc2ccc(-c3cc(Cl)c(O)c(Cl)c3)nc2c1N[C@H]1CC[C@H](CN(C)C)CC1
Method in brief: as §1

ralimetinib = compound: CC(C)(C)Cn1c(N)nc2ccc(-c3[nH]c(C(C)(C)C)nc3-c3ccc(F)cc3)nc21 [ralimetinib]
Method in brief: as §1

[10] = compound: CC(C)(O)CC(=O)NCCn1ccc2ncnc(Nc3ccc(Oc4cccc(C(F)(F)F)c4)c(Cl)c3)c21
Method in brief: as §1

[11] = compound: CC(C)C1=C2N=C(C=C(N2N=C1)NCC3=CC=CC=C3)NCCCCCCN
Method in brief: as §1

[12] = compound: CC1=C(C(CC(=O)N1)C2=CC=C(C=C2)C(F)(F)F)C(=O)NC3=C(C=C4C(=C3)C=NN4)F
Method in brief: as §1

[13] = compound: CC1=C(C2=C(C=C1)C(=O)C3=CC=CC=C3N2CCCN)C
Method in brief: as §1

[14] = compound: CC1=C(C=C(C=C1)NC(=O)C2=CC(=CC=C2)C(C)(C)C#N)NC3=CC4=C(C=C3)N=CN(C4=O)C
Method in brief: as §1

[15] = compound: CC1=C(C=C(C=C1)NC(=O)C2=CC(=CC=C2)N(C)C)NC(=O)C3=CC=C(C=C3)O
Method in brief: as §1

[16] = compound: CC1=CC=C(C=C1)SC2=C3C=C(SC3=CN=C2)C(=O)N
Method in brief: as §1

Target	log2 fold change (erlotinib)	log2 fold change [1]	log2 fold change [2]	log2 fold change [3]	log2 fold change [4]	log2 fold change [5]	log2 fold change [6]	log2 fold change [7]	log2 fold change [8]	log2 fold change (IRAK-1-4 Inhibitor I)	log2 fold change (ibrutinib)	log2 fold change [9]	log2 fold change (ralimetinib)	log2 fold change [10]	log2 fold change [11]	log2 fold change [12]	log2 fold change [13]	log2 fold change [14]	log2 fold change [15]	log2 fold change [16]
LUC7L3 (UniProt O95232)	inactive: 0.017	inactive: 0.018	inactive: -0.021	inactive: -0.014	inactive: -0.044	inactive: 0.003	inactive: -0.011	inactive: -0.02	inactive: 0.044	inactive: -0.016	inactive: -0.033	inactive: -0.023	inactive: -0.002	inactive: -0.002	inactive: -0.001	inactive: -0.006	inactive: -0.021	inactive: 0.03	inactive: -0.015	inactive: -0.044
LYSMD3 (UniProt Q7Z3D4)	inactive: -0.067	inactive: -0.051	inactive: 0.044	inactive: 0.069	inactive: 0.05	inactive: 0.007	inactive: -0.11	inactive: 0.037	inactive: 0	inactive: -0.01	inactive: 0.098	inactive: -0.072	inactive: 0.003	inactive: -0.046	inactive: -0.045	inactive: -0.099	inactive: -0.003	inactive: 0.034	inactive: 0.005	inactive: -0.01
MAST2 (UniProt Q6P0Q8)	inactive: 0.044	inactive: -0.054	inactive: 0.142	inactive: 0.003	active: -0.588	inactive: -0.03	inactive: 0.099	inactive: 0.038	inactive: -0.046	inactive: 0.073	inactive: 0.136	inactive: 0.054	inactive: 0.033	inactive: -0.084	inactive: 0.071		inactive: -0.157	inactive: 0.03	inactive: 0.031	inactive: -0.022
MAPRE3 isoform 2 (UniProt Q9UPY8)	inactive: 0.021	inactive: 0.04	inactive: -0.164	inactive: -0.053	inactive: -0.286	inactive: -0.002	inactive: 0.018			inactive: 0.095	inactive: -0.221	inactive: 0.104	inactive: -0.119	inactive: 0.025	inactive: 0.044			inactive: -0.058	inactive: -0.14	inactive: -0.039
MAN1B1 (UniProt Q9UKM7)	inactive: 0.001	inactive: -0.122	inactive: -0.071	inactive: 0.01	inactive: -0.046	inactive: -0.031	inactive: -0.101	inactive: 0.027	inactive: 0.004	inactive: -0.036	inactive: 0	inactive: 0.025	inactive: -0.05	inactive: -0.014	inactive: 0.025	inactive: 0.046	inactive: 0.025	inactive: 0.066	inactive: -0.056	inactive: 0.025
MAN2B2 (UniProt Q9Y2E5)	inactive: 0.006		inactive: -0.019		inactive: -0.003	inactive: -0.035		inactive: -0.01	inactive: 0.045	inactive: 0.009	inactive: -0.019	inactive: -0.026	inactive: 0.008	inactive: 0.083	inactive: -0.051	inactive: 0.056	inactive: -0.013	inactive: -0.013	inactive: -0.024	inactive: 0.012
LTBP4 (UniProt Q8N2S1)	inactive: 0.06		inactive: 0.004		inactive: 0.267	inactive: 0.052		inactive: -0.051	inactive: -0.051	inactive: 0.011	inactive: -0.074	inactive: -0.077	inactive: 0.135	inactive: -0.095	inactive: 0.011	inactive: -0.037	inactive: -0.067	inactive: 0.011	inactive: -0.149	inactive: -0.018
MAP4K2 (UniProt Q12851)	inactive: 0.001	inactive: -0.202	inactive: -0.082	inactive: -0.195	inactive: 0.05	inactive: -0.057	inactive: 0.355	inactive: 0.288	inactive: -0.205	inactive: -0.046	inactive: -0.036	inactive: 0.337	inactive: -0.029	inactive: 0.108	inactive: 0.04		inactive: -0.144	inactive: 0.058	inactive: 0.209	inactive: -0.207
MAGEA6 (UniProt P43360)	inactive: 0.07	inactive: 0.023	inactive: 0.175	inactive: 0.101			inactive: 0.053	inactive: -0.143	inactive: -0.089						inactive: -0.119			inactive: -0.165		

An excerpt from the list above, for reference:
Target	log2 fold change (erlotinib)	log2 fold change [1]	log2 fold change [2]	log2 fold change [3]	log2 fold change [4]	log2 fold change [5]	log2 fold change [6]	log2 fold change [7]	log2 fold change [8]	log2 fold change (IRAK-1-4 Inhibitor I)	log2 fold change (ibrutinib)	log2 fold change [9]	log2 fold change (ralimetinib)	log2 fold change [10]	log2 fold change [11]	log2 fold change [12]	log2 fold change [13]	log2 fold change [14]	log2 fold change [15]	log2 fold change [16]
MAPRE3 isoform 2 (UniProt Q9UPY8)	inactive: 0.021	inactive: 0.04	inactive: -0.164	inactive: -0.053	inactive: -0.286	inactive: -0.002	inactive: 0.018			inactive: 0.095	inactive: -0.221	inactive: 0.104	inactive: -0.119	inactive: 0.025	inactive: 0.044			inactive: -0.058	inactive: -0.14	inactive: -0.039
MAN1B1 (UniProt Q9UKM7)	inactive: 0.001	inactive: -0.122	inactive: -0.071	inactive: 0.01	inactive: -0.046	inactive: -0.031	inactive: -0.101	inactive: 0.027	inactive: 0.004	inactive: -0.036	inactive: 0	inactive: 0.025	inactive: -0.05	inactive: -0.014	inactive: 0.025	inactive: 0.046	inactive: 0.025	inactive: 0.066	inactive: -0.056	inactive: 0.025
